According to paper PMC11290353:
These are yes or no findings as the source states them, for the method shown. In cells and extracts the contact can be indirect. Binding can be weak; no strength is given. Where a sequence is shown, tags or fusion partners need not be part of it.

Biological target: GFP-CMTR1ΔWW (human)
Assay: co-IP; GFP-CMTR1 proteins co-expressed with HA-CMTR1-WW or HA-CMTR1-GT-WW, immunoprecipitated using GFP nanobodies; HA-tagged proteins and RNA Pol II S5P detected by western blot

B1: HA-CMTR1-WW (domain or fragment, UniProt Q8N1G2 752-786)
chain: RTVNEPWTMGFSKSFKKKFFYNKKTKDSTFDLPAD
- binding: binds
